These are yes or no findings as the source states them, for the method shown. Binding seen in cells or lysates may run through a third protein. A yes stands for co-enrichment or nearness to the bait. Other partners may have been found.
What was measured:
[1] = target: T1, kinesin family member C1 (KIFC1) (human) (UniProt Q9BW19); assay: affinity purification with mass spectrometry; anti-KIFC1 antibody (Abcam ab172620) crosslinked to magnetic beads; nuclear lysate of MDA-MB-231 (EA) cells; LC-MS/MS of the eluate
T1 sequence: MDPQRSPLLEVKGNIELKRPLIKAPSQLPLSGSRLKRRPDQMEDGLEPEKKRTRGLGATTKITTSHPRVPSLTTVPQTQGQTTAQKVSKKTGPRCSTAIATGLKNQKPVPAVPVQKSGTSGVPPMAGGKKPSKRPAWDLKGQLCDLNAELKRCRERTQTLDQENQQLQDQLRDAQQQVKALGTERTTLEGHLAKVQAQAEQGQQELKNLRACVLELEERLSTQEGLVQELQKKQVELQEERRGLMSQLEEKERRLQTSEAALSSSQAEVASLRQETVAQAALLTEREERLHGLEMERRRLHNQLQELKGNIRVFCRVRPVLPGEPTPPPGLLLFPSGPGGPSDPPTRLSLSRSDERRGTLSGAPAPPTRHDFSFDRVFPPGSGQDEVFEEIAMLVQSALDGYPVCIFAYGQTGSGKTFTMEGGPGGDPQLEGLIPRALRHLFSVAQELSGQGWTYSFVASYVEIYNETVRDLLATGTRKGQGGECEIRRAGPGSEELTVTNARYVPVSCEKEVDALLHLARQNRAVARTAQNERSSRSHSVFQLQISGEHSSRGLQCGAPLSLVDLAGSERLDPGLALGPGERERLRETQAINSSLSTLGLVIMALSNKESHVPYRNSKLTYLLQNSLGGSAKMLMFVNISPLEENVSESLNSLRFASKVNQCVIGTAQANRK

Protein sequences, listed by entry. Tags and fused reporters are not part of them.
UniProt P16402: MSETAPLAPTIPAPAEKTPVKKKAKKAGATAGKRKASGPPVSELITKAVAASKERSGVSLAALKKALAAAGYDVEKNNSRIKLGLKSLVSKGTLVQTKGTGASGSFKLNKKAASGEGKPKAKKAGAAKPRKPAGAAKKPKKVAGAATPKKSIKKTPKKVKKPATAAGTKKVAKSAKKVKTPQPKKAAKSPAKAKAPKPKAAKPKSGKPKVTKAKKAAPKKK
UniProt P16401: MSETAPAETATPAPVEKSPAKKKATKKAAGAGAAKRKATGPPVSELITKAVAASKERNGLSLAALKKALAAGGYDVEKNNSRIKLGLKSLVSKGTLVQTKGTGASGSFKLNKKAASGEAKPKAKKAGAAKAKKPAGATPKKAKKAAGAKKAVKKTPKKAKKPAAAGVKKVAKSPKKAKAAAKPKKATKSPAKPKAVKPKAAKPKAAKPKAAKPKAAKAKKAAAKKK
UniProt P13645: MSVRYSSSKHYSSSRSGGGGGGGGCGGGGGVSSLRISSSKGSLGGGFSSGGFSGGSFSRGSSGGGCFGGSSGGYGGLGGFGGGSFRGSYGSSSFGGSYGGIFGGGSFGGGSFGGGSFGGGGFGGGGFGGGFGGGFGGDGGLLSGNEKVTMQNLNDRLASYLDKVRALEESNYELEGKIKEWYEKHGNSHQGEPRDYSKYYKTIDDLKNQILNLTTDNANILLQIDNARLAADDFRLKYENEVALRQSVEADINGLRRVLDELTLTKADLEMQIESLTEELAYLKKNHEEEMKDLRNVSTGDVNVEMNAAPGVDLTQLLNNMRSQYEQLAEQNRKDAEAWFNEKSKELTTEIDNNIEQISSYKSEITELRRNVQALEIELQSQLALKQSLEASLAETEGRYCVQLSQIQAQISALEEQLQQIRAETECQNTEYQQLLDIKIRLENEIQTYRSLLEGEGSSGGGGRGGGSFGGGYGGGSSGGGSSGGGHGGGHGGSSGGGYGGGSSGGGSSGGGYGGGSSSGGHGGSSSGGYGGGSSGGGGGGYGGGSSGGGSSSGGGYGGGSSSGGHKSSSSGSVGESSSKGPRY
UniProt P04264: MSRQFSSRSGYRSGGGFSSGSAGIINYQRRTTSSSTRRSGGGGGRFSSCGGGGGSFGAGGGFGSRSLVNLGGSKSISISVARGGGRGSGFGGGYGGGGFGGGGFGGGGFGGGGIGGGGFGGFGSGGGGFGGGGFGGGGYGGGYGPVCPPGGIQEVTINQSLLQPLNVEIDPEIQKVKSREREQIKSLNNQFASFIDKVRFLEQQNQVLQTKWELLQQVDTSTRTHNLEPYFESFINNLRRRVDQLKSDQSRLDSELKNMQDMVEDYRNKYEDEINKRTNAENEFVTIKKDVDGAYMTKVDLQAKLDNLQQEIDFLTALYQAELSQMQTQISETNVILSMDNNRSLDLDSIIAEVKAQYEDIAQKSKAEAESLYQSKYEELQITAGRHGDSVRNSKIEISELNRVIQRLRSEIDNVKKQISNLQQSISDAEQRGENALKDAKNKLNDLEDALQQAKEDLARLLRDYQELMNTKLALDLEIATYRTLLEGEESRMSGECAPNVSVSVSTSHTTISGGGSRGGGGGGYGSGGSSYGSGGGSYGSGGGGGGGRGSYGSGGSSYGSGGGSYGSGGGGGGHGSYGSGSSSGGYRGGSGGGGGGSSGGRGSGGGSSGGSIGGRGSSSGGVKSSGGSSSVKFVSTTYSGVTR
UniProt P04259: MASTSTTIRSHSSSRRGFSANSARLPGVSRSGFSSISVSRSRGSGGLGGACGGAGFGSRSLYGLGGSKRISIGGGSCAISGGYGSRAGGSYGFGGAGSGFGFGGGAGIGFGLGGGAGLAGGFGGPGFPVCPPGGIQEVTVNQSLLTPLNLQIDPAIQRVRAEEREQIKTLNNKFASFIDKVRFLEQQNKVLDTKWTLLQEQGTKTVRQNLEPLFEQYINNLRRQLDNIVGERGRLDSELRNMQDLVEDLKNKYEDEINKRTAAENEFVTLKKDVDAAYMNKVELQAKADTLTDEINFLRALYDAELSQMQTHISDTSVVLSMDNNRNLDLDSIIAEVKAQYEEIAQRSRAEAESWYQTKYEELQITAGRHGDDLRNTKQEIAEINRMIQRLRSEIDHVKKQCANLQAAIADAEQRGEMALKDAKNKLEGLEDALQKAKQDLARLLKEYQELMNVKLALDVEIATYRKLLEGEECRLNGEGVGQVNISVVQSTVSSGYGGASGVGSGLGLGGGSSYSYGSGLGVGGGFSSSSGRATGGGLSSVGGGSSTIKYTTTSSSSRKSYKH
UniProt P35908: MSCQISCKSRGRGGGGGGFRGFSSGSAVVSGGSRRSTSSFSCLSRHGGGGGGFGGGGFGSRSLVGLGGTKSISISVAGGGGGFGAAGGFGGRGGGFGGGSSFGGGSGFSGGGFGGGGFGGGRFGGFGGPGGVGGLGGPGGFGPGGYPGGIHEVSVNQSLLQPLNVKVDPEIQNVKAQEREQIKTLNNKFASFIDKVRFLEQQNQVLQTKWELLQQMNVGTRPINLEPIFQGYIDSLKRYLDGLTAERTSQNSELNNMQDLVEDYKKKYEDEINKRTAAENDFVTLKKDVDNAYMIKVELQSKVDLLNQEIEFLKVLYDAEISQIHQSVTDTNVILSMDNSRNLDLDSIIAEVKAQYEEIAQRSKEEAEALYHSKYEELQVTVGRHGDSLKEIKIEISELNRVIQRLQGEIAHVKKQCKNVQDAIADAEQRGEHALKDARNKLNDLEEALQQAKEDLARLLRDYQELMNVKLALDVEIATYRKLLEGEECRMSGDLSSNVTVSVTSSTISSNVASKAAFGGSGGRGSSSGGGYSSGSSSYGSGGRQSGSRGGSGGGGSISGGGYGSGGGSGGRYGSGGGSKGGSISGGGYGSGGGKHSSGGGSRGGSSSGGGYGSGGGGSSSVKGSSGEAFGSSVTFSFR

[2] = target: T1, kinesin family member C1 (KIFC1) (human); assay: affinity purification with mass spectrometry; anti-KIFC1 antibody (Abcam ab172620) crosslinked to magnetic beads; nuclear lysate of BT-549 (EA) cells; LC-MS/MS of the eluate
[3] = target: T1, kinesin family member C1 (KIFC1) (human); assay: affinity purification with mass spectrometry; anti-KIFC1 antibody (Abcam ab172620) crosslinked to magnetic beads; nuclear lysate of HCC1806 (AA) cells; LC-MS/MS of the eluate
[4] = target: T1, kinesin family member C1 (KIFC1) (human); assay: affinity purification with mass spectrometry; anti-KIFC1 antibody (Abcam ab172620) crosslinked to magnetic beads; nuclear lysate of MDA-MB-468 (AA) cells; LC-MS/MS of the eluate

| Substance | binding [1] | binding [2] | binding [3] | binding [4] |
| --- | --- | --- | --- | --- |
| H13_HUMAN (from UniProt P16402 1-221) | binds | binds |  |  |
| H15_HUMAN (from UniProt P16401 1-226) | binds | binds |  |  |
| K1C10_HUMAN (from UniProt P13645 1-584) | binds | binds | binds |  |
| K2C1_HUMAN (from UniProt P04264 1-644) | binds | binds |  |  |
| K2C6B_HUMAN (from UniProt P04259 1-564) | binds | binds | binds | binds |
| K22E_HUMAN (from UniProt P35908 1-639) | binds | binds | binds |  |

From PMC11188183
